Assay results published in PubChem BioAssay AID504834 (National Center for Advancing Translational Sciences (NCATS), 2011).
Values joined by “and” are separate entries in the source; they are usually repeats but may differ in a detail not shown here. Identical values can stand only once. Out of some 320,000 compounds screened, about 22,000 (6.9%) were called active. The inconclusive results got no clear call from the source; some entries with a clear call stand among them for comparison. The call rests on the fitted dose curve; in most records, active means well fitted inhibition curve with a large enough effect; inconclusive means small, poorly fitted or top-dose-only effect, or another doubt; inactive means no such curve, though single readings can be large or run the other way. Potencies beside an inconclusive call are fits to weak or partial responses and may not hold up.
On the % scale 0 is the no-effect control and ±100 the full control effect; potency means the concentration at half of the fitted maximal effect.

Assay: Primary qHTS for delayed death inhibitors of the malarial parasite plastid, 96 hour incubation
Details: P. falciparum luciferase reporter growth; series mostly up to 28.7 µM
Summary of the method: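 Luminescence readout: decreased luciferase signal marks inhibited growth of reporter-expressing P. falciparum in infected red cells (2% hematocrit, 0.05% parasitemia final), exposed to compound two generations (96 h, 37 C, 5% CO2).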
With CC(C)CN(CC(C)C)C(=S)Nc1ccc(Cl)cc1 the Potency was inconclusive: 4.15 µM [inhibitor, partial curve, poor fit].
With CCOc1ccccc1Nc1nnc(Cc2ccccc2Cl)c(=O)[nH]1 the Potency was inconclusive: 18.5 µM [inhibitor, single point].
For CC1CCCCN1C(=O)COC(=O)c1cccc(NS(=O)(=O)c2ccccc2)c1 (configuration not stated), the Potency was “inactive”.
With CCCc1nc(SCc2ccccc2Cl)n[nH]1 the Potency was “inactive”.
With O=c1c2ccccc2c(-c2ccc(Cl)cc2)nn1-c1ccccc1 the Potency was inconclusive: 2.62 µM [inhibitor, full curve, poor fit].
In the case of Cc1ccc(NC(=S)Nc2ccccn2)cc1C, the Potency is reported as inconclusive: 5.86 µM [inhibitor, partial curve, poor fit].
With O=C(CCc1ccccn1)N1CCCC(N2CCN(c3ccc(F)cc3)CC2)C1 (configuration not stated) the Potency was “inactive”.
With O=C(O)C(Cc1ccc(O)cc1)N1C(=O)c2ccccc2C1=O (configuration not stated) the Potency was “inactive”.
In the case of CN(C)CCOc1ccccc1Cc1ccccc1, the Potency is reported as “inactive and inconclusive: 2.69 µM [inhibitor, full curve]”.
In the case of Cc1nc(NC(=O)c2cncc(Br)c2)ccc1Br, the Potency is reported as inconclusive: 18.5 µM [inhibitor, single point].
For Clc1ccc(CNc2ccc(CNc3ncn[nH]3)cc2)cc1, the Potency was “inactive”.
For Cc1cccc2c(N)c3c(nc12)CCCC3 (tested in a mixture with another compound), the Potency was inconclusive: 9.28 µM [inhibitor, partial curve, poor fit].
For CCc1ccc(NC(=S)N(CCN(C)C)C(C)c2ccncc2)cc1 (configuration not stated), the Potency was inconclusive: 2.62 µM [inhibitor, partial curve, poor fit].
For COc1ccc(C(=O)NC2CCSc3ccccc32)cc1F (configuration not stated), the Potency was inconclusive: 20.8 µM [inhibitor, partial curve, poor fit].
For COc1cc(C(=O)Nc2ccccc2C(=O)Nc2ccccn2)cc(OC)c1OC, the Potency was inconclusive: 10.4 µM [inhibitor, single point].
In the case of CCOC(=O)[C@@H]1[C@H]2COc3cc(OC)ccc3[C@H]2N2C(=O)N(c3ccc(F)cc3)C(=O)[C@@]12C, the Potency is reported as inconclusive: 11.7 µM [inhibitor, single point].
For COc1ccc(C(=O)NCC(c2ccco2)N(C)C)cc1S(=O)(=O)NCc1ccc(Cl)cc1 (configuration not stated), the Potency was inconclusive: 18.5 µM [inhibitor, single point].
In the case of CCOC(=O)/C(C#N)=C/Nc1cc(F)ccc1C, the Potency is reported as inconclusive: 0.415 µM [inhibitor, full curve, poor fit].
In the case of NS(=O)(=O)c1ccc(CNC(=O)Cc2ccccc2[N+](=O)[O-])cc1, the Potency is reported as “inactive”.
For COc1ccc(CNC(=O)Nc2ccccc2)cc1, the Potency was “inactive”.
With COC(=O)c1cccc(NC(=S)NCc2ccc(Cl)cc2)c1 the Potency was “inactive”.
With CCOc1cc2[nH]c(=O)n(CCCC(=O)NCc3ccc(OC)cc3)c(=O)c2cc1OCC the Potency was inconclusive: 3.29 µM [inhibitor, full curve, poor fit].
With CC(C)CN(Cc1cc2ccccc2[nH]c1=O)C(=O)c1cccnc1 the activity change, negative = inhibition was inactive: -15.9% [at 5.75 µM].
With O=C(CS(=O)CC(=O)N(c1ccccc1)C(C(=O)NC1CCCCC1)c1ccco1)Nc1ccc(F)cc1 (configuration not stated) the Potency was active: 7.38 µM.
For CC(C)C(c1nnnn1Cc1ccc(F)cc1)N1CCN(C(=O)c2ccco2)CC1 (configuration not stated), the Potency was active: 13.1 µM.
In the case of Cc1ccc(C)c(OCCn2nnc3ccccc32)c1, the Potency is reported as “inactive”.
With O=C(CNC(=O)c1cccc(Cl)c1)NCCCSc1ccccc1 the Potency was “inactive”.
For CC1CCCN(c2ccc(C(=O)N3CCC4(CC3)OCCO4)cc2[N+](=O)[O-])C1 (configuration not stated), the Potency was inconclusive: 0.928 µM [inhibitor, full curve, poor fit].
For CCOC(=O)c1[nH]c(C)c(C(=O)OCC(=O)NCc2ccc(OC)cc2)c1C, the Potency was inconclusive: 1.85 µM [inhibitor, partial curve].
With COc1ccccc1NC(=S)NCCC(c1ccccc1)c1ccccc1 the Potency was inconclusive: 10.4 µM [inhibitor, partial curve].
In the case of CCCCN(C(=O)COC(=O)c1ccc(C=O)cc1)c1c(N)n(CCC)c(=O)[nH]c1=O, the Potency is reported as inconclusive: 18.5 µM [inhibitor, single point].
With CC(C)(C)C(=O)Nc1ccc(C(=O)N/N=C/c2ccccc2OC(=O)c2ccccc2)cc1 the Potency was active: 4.15 µM.
With Cc1ccc(S(=O)(=O)N2CCC(C(=O)N3CCC(C(=O)NCC4CCCO4)CC3)CC2)cc1 (configuration not stated) the Potency was inconclusive: 0.0033 µM [inhibitor, full curve, poor fit].
With Cc1ccc2cc(CN(CCN(C)C)C(=S)Nc3ccccc3)c(=O)[nH]c2c1C the Potency was “inactive”.
For O=C(c1ccc(-n2cnnn2)cc1)N(C1CCCCC1)C1CCCCC1, the Potency was “inactive”.
In the case of COc1ccccc1OCc1ccc(C(=O)Nc2cc(OC)c(OC)c(OC)c2)o1, the Potency is reported as “inactive”.
For S=c1[nH]nc(-c2ccncc2)n1/N=C/C=C/c1ccco1, the Potency was inconclusive: 4.15 µM [inhibitor, single point].
With CC1(C)Cc2c(sc(NC(=O)C(=O)N3CCCC3)c2C(N)=O)CO1 the Potency was “inactive”.
For Cc1ccccc1CNS(=O)(=O)c1c(C(=O)N2CCCC2)c(C)n(C)c1C, the Potency was “inactive”.
With COc1cccc(CNc2ccc(N3CCC(C)CC3)cc2)c1OC the Potency was inconclusive: 11.7 µM [inhibitor, partial curve, poor fit].
For CC1=CC(=O)c2ccccc2C1=O, the Potency was active: 15.1 µM.
With COc1ccc(OCCOc2ccccc2[N+](=O)[O-])cc1 the Potency was “inactive”.
With C/C(=N\Nc1nnc(C)c(=O)[nH]1)C(=O)O the Potency was inconclusive: 0.928 µM [inhibitor, partial curve].
With O=C(CN1C(=O)NC2(CCCC2)C1=O)Nc1ccccc1 the Potency was “inactive”.
For COc1cc(OC)cc(C(=O)Nc2ccc(NC(=O)c3ccco3)c(Cl)c2)c1, the Potency was inconclusive: 18.5 µM [inhibitor, single point].
For Cc1ccc(C(=O)Nc2nc3c(s2)CCCC3)o1, the Potency was active: 13.1 µM.
For CCOC(=O)c1c(C)[nH]c(C(=O)OCC(=O)Nc2ccccc2)c1C, the Potency was inconclusive: 0.147 µM [inhibitor, full curve, poor fit].
In the case of O=C(c1ccc2c(c1)OCO2)N1CCCN(C(=O)c2ccc3c(c2)OCO3)CC1, the Potency is reported as inconclusive: 13.1 µM [inhibitor, single point].
For CCNc1ccc(C(=O)OCC(=O)NCc2ccc(C)cc2)cc1[N+](=O)[O-], the Potency was inconclusive: 11.7 µM [inhibitor, single point].
With CN(C)S(=O)(=O)c1cc(C(=O)Nc2ccccc2C(=O)NC2CC2)ccc1Cl the Potency was inconclusive: 10.4 µM [inhibitor, partial curve, poor fit].
For CC1(C)CC(O)C(C)(C)N1O (configuration not stated), the Potency was active: 13.1 µM.
In the case of CCC(C)c1ccc(NC(=S)NCc2cccnc2)cc1 (configuration not stated), the Potency is reported as inconclusive: 14.7 µM [inhibitor, single point].
With O=C(NCC1CCCCC1)c1ccc(F)c(S(=O)(=O)N2CCOCC2)c1 the Potency was active: 7.38 µM.
With COc1cccc(NC(=O)C(c2ccccc2)N2CCN(c3ccccn3)CC2)c1 (configuration not stated) the Potency was inconclusive: 16.5 µM [inhibitor, single point].
In the case of Cc1cc(=O)[nH]c(N/N=C/c2c(C)nn(-c3ccccc3)c2Cl)n1, the Potency is reported as active: 8.28 µM.
In the case of O=c1[nH][nH]c2nc(C(F)(F)F)cc(C(F)(F)F)c12, the Potency is reported as inconclusive: 20.8 µM [inhibitor, partial curve, poor fit].
With Cc1cccc(C)c1NC(=O)NC1(C(=O)NCc2ccncc2)CCCCC1 the Potency was inconclusive: 8.28 µM [inhibitor, partial curve].
In the case of CCN(CC(=O)Nc1ccc(NC(C)=O)cc1)C(=O)c1ccc2c(c1)OCCO2, the Potency is reported as inconclusive: 13.1 µM [inhibitor, partial curve, poor fit].
With CCn1c(C)nc2cc(-c3nc4n(n3)Cc3ccccc3-4)ccc21 the Potency was active: 0.208 µM.
In the case of Cn1c(SCCCC(=O)c2ccccc2)nnc1-c1ccncc1, the Potency is reported as “inactive”.
With CCC(=O)N1c2ccc(S(=O)(=O)N3CCN(c4cc(C)ccc4C)CC3)cc2CC1C (configuration not stated) the Potency was inconclusive: 14.7 µM [inhibitor, single point].
With O=C(N/N=C/c1c[nH]c2ccccc12)c1[nH]c2ccc(Br)cc2c1-c1ccccc1 the Potency was “inactive”.
For OCc1ccc2c(c1)c(-c1ccc3c(c1)OCCO3)c(-c1ccccc1)n2-c1ccccc1, the Potency was active: 4.65 µM.
With Cc1cc(NC(=O)CSc2nnc3c(C)cc4cc(C)c(C)cc4n23)no1 the Potency was inconclusive: 18.5 µM [inhibitor, single point].
In the case of CC(C)CN1CC(=O)N2C(c3ccccc3)c3[nH]c4ccccc4c3C[C@H]2C1=O (some centres not stated), the Potency is reported as inconclusive: 2.94 µM [inhibitor, partial curve, poor fit].
In the case of CCOc1ccc(CN2CCNC(=O)C2CC(=O)NCc2csc(C)n2)cc1 (configuration not stated), the Potency is reported as active: 3.29 µM.
With CCCN(CCC)S(=O)(=O)c1cc(Br)cc2c1N(C(=O)CC)CC2 the Potency was inconclusive: 11.7 µM [inhibitor, single point].
In the case of CC1CCN(CCCNC(=O)c2ccc3c(=O)n(CCc4ccccc4)c(=O)[nH]c3c2)CC1, the Potency is reported as inconclusive: 9.28 µM [inhibitor, partial curve, poor fit].
For CCC(C(=O)Nc1c(C)cc(C)cc1C)N1CCCCCC1 (configuration not stated), the Potency was inconclusive: 18.5 µM [inhibitor, single point].
For COCc1nc2ccccc2n1Cc1ccccc1, the Potency was inconclusive: 8.28 µM [inhibitor, single point].
For CN(CCc1ccccn1)C(=O)c1cccnc1Oc1ccccc1, the Potency was “inactive”.
For Cc1cc(=O)oc2cc(OCC(O)Cn3ccnc3)ccc12 (configuration not stated), the Potency was “inactive”.
